Source: paper PMC5861459
No constants are given. Whether binding was seen depends on the method and setting.

The chains behind the UniProt entries cited, without tags or fusion partners.
UniProt Q9Y262: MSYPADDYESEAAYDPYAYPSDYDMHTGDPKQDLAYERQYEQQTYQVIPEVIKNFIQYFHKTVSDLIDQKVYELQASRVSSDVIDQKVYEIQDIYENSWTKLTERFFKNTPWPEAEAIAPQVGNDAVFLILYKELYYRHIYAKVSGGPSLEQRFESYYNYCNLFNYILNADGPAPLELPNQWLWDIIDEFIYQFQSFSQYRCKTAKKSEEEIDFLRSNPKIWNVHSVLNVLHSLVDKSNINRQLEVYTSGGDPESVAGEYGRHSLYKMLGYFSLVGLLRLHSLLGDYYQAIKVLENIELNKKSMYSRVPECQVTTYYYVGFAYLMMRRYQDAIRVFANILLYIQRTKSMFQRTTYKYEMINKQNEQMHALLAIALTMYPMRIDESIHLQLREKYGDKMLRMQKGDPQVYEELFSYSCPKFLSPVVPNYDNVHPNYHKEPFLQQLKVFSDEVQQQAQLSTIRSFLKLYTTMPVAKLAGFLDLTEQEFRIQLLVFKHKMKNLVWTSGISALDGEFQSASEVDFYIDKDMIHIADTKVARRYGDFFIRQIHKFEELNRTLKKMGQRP
UniProt P60228: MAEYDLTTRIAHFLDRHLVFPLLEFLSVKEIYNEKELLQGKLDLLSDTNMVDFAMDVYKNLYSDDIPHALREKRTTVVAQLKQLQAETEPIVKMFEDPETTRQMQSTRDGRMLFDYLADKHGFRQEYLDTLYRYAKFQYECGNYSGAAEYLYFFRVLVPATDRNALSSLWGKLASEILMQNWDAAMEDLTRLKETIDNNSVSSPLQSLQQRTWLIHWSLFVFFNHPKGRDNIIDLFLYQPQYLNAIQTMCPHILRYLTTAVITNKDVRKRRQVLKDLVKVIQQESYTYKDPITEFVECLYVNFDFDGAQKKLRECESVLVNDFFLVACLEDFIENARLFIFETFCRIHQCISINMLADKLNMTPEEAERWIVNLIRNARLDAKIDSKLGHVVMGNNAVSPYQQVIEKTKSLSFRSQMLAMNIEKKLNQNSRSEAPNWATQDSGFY
UniProt O75821: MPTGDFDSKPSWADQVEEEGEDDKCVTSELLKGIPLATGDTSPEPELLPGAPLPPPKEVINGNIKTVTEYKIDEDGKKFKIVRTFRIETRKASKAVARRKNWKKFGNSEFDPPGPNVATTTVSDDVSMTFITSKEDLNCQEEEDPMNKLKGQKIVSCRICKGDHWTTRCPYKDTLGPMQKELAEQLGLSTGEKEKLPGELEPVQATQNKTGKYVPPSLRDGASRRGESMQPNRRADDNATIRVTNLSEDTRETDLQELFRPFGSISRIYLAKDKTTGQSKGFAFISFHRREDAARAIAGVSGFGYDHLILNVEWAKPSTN
UniProt Q13347: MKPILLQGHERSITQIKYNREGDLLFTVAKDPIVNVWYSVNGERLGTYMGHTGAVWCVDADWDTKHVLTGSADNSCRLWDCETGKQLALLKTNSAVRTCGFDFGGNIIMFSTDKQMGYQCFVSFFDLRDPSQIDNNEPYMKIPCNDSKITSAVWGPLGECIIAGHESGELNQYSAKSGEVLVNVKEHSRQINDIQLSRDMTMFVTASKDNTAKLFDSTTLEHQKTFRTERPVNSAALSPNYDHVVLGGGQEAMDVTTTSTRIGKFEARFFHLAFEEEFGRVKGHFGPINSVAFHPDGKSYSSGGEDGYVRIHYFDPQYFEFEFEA

Key:
[1] = biological target: eukaryotic initiation factor 3 subunit l (human) (UniProt Q9Y262); assay: cross-linking; affinity purified h-48S complexes cross-linked with 1 mM DSS-d0/d12 in 20 mM HEPES-KOH pH 8, 100 mM KCl, 5 mM MgCl2, 0.25 mM GMPPNP; LC-MS, xQuest, FDR <5%; both purified
[2] = biological target: eukaryotic initiation factor 3 subunit e (human) (UniProt P60228); assay: as above

| Substance | binding [1] | binding [2] |
| --- | --- | --- |
| eukaryotic initiation factor 3 subunit g (from UniProt O75821 1-320) | no binding | no binding |
| eukaryotic initiation factor 3 subunit i (from UniProt Q13347 1-325) | no binding | no binding |
